Data as given in the supplement of paper PMC10727501.
Some of the results follow. Repeats in this data set agree poorly, so a single value says little.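 Free-swimming zebrafish larvae were scored for O-bend response probability to dark flashes (naive: first five; training: remaining flashes of four 60-flash blocks; test: later 60-flash block) and for turning toward alternating leftward/rightward LED motion (OMR). Six treated larvae were compared with sixty 0.1% DMSO controls; |SSMD|≥2 defined a hit.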

Columns and labels:
Details in all cases: 10 µM; pre-incubation: 30-90 min
[1] = test system: Danio rerio larvae (5 dpf, TLF); test: OMR-Perf (SSMD vs DMSO vehicle); higher = higher than vehicle (e.g. higher dark-flash O-bend response probability, or better optomotor performance)
[2] = test system: Danio rerio larvae (5 dpf, TLF); test: Prob-Test (SSMD vs DMSO vehicle); higher = higher than vehicle (e.g. higher dark-flash O-bend response probability, or better optomotor performance)
[3] = test system: Danio rerio larvae (5 dpf, TLF); test: Prob-Naive (SSMD vs DMSO vehicle); higher = higher than vehicle (e.g. higher dark-flash O-bend response probability, or better optomotor performance)
[4] = test system: Danio rerio larvae (5 dpf, TLF); test: Prob-Train (SSMD vs DMSO vehicle); higher = higher than vehicle (e.g. higher dark-flash O-bend response probability, or better optomotor performance)

Row | Structure (SMILES) | OMR-Perf [1] | Prob-Test [2] | Prob-Naive [3] | Prob-Train [4]
1 | CCO.C[C@H]1c2cccc(O)c2C(=O)C2=C(O)[C@]3(O)C(=O)C(C(N)=O)=C(O)[C@@H](N(C)C)[C@@H]3[C@@H](O)[C@@H]21.C[C@H]1c2cccc(O)c2C(=O)C2=C(O)[C@]3(O)C(=O)C(C(N)=O)=C(O)[C@@H](N(C)C)[C@@H]3[C@@H](O)[C@@H]21.Cl.Cl.O [Doxycycline Hyclate] | -0.0143 | 0.342 | -0.0234 | 0.101
2 | O=C(Nc1ccccc1)Nc1ccc(-c2ccc(C(=O)[C@@H]3CCC[C@@H]3C(=O)O)cc2)cc1 | -0.152 | 0.364 | -0.109 | 0.819
3 | CC(C)(O)c1ccccc1CC[C@@H](SCC1(CC(=O)[O-])CC1)c1cccc(/C=C/c2ccc3ccc(Cl)cc3n2)c1.[Na+] [Montelukast Sodium] | -0.0994 | -1.52 | -0.932 | -1.05
4 | COc1cc2ncnc(Nc3cccc(Cl)c3)c2cc1OC [AG-1478 (Tyrphostin AG-1478)] | -0.667 | -0.658 | -0.283 | -0.535
5 | C1(C[C@@H]2C[C@@H](C[C@@H]1N2C)OC(C3=CC=CC=C3)C4=CC=CC=C4).CS(=O)(=O)O (stereo not given in full) [Benztropine mesylate] | -0.259 | 0.742 | 5.13e-16 | 0.51
6 | O=c1[nH]cnc2c1ncn2[C@H]1O[C@H](CO)[C@@H](O)[C@H]1O [Inosine] | -0.731 | -0.874 | -0.639 | -0.598
7 | [O]=[V]([O][Na])([O][Na])[O][Na] [Sodium orthovanadate] | 0.223 | -0.0134 | 0.421 | -0.0111
8 | CO[C@H]1O[C@H]2O[C@@]3(C)CC[C@H]4[C@@H](C)CC[C@@H]([C@@H]1C)[C@@]24OO3 [Artemether] | -0.455 | 0.563 | -0.0101 | -0.0621
9 | CC(C)(C)c1nc(-c2cccc(NS(=O)(=O)c3c(F)cccc3F)c2F)c(-c2ccnc(N)n2)s1 | 0.258 | 0.407 | 0.319 | 0.273
10 | Oc1ccc(/C=C/c2cc(O)cc(O)c2)cc1 [Resveratrol] | -0.147 | 0.384 | 0.146 | 0.366
11 | C[C@H]1CCN(C(=O)CC#N)C[C@@H]1N(C)c1ncnc2[nH]ccc12 | -0.349 | 0.0609 | 0.538 | 0.117
12 | N[C@H]1CONC1=O [D-Cycloserine] | -0.459 | -0.0442 | 0.131 | -0.196
13 | COc1cc(CCC(C)=O)ccc1O [Vanillylacetone] | 0.0345 | -0.294 | 0.516 | 0.23
14 | Cc1[nH]c(=O)c(C#N)cc1-c1ccncc1 [Milrinone] | -0.453 | -0.000449 | -0.81 | 0.182
15 | CNC1CCCN(c2c(F)cc3c(=O)c(C(=O)O)cn(C4CC4)c3c2OC)C1 (stereo not given) [Balofloxacin] | -0.237 | -0.911 | -0.485 | -0.321
16 | C[C@H](CCC(=O)O)[C@@H]1CC[C@H]2[C@H]3[C@@H](CC[C@@]21C)[C@@]1(C)CC[C@@H](O)C[C@H]1C[C@@H]3O [Ursodiol] | 0.103 | 0.164 | -0.193 | 0.425
17 | Nc1ccn([C@@H]2O[C@H](CO)[C@@H](O)C2(F)F)c(=O)n1 [Gemcitabine] | 0.245 | 0.723 | -0.459 | 0.223
18 | CN(C)CCOC(c1ccccc1)c1ccccc1.Cl [Diphenhydramine HCl] | -0.0502 | -0.0336 | 0.271 | 0.162
19 | Nc1ccc(C(=O)Nc2cccc(-c3nc(N4CCOCC4)c4oc5ncccc5c4n3)c2)cn1 | -0.613 | 0.11 | -0.618 | -0.497
20 | Nc1c2ccccc2nc2ccccc12 [9-Aminoacridine] | 0.252 | 0.0935 | 0.457 | 0.546
21 | O=C1Nc2ccccc2/C1=C1/Nc2ccccc2C1=O [Indirubin] | -0.0743 | 0.649 | -0.13 | 0.371
22 | C=CC(=O)Nc1cccc(Nc2nc(Nc3ccc(Oc4ccnc(C(=O)NC)c4)cc3)ncc2F)c1 | 0.356 | -0.609 | -0.661 | -0.656
23 | CC(C)c1nc(CN(C)C(=O)N[C@@H](CCN2CCOCC2)C(=O)N[C@H](CC[C@H](Cc2ccccc2)NC(=O)OCc2cncs2)Cc2ccccc2)cs1 [Cobicistat (GS-9350)] | 0.273 | -0.447 | -0.487 | -0.605
24 | Clc1ccc2c(c1)C(N1CCNCC1)=Nc1ccccc1O2 [Amoxapine] | -0.986 | 0.24 | 0.433 | 0.508
25 | CCN(CC)CCOC(=O)C(c1ccccc1)c1ccccc1.Cl [Adiphenine HCl] | -0.39 | -0.248 | -0.819 | -0.49

Fetched one by one from the entries so far (two):
Row | Structure (SMILES) | OMR-Perf [1] | Prob-Test [2] | Prob-Naive [3] | Prob-Train [4]
15 | CNC1CCCN(c2c(F)cc3c(=O)c(C(=O)O)cn(C4CC4)c3c2OC)C1 (stereo not given) [Balofloxacin] | -0.237 | -0.911 | -0.485 | -0.321
2 | O=C(Nc1ccccc1)Nc1ccc(-c2ccc(C(=O)[C@@H]3CCC[C@@H]3C(=O)O)cc2)cc1 | -0.152 | 0.364 | -0.109 | 0.819
